Some entries share one result that the patent states for a list of compounds.
What was measured:
Type in all cases: in vivo
[1] = test system: Diamondback Moth (Plutella xylostella); assay: Insecticidal test on diamondback moth (Plutella xylostella); settings: at 100 ppm; cabbage leaf immersed; second-instar larvae; counted 6 days after release; 25° C.
Protocol: Insecticidal Test on Diamondback Moth (Plutella xylostella)
(§1) A piece of cabbage leaf was immersed for 30 seconds in a liquid chemical prepared by diluting a test compound to a prescribed concentration. After air-drying, the piece was put into a 7-cm polyethylene cup and second-instar larvae of diamondback moths were released thereinto. The polyethylene cups were set in an isothermal chamber thermostated at 25° C. From the release 6 days later, the dead and alive were counted. The test was carried out with two replications of 5 insects per a plot.

[2] = test system: Small Brown Planthopper (Laodelphax striatellus); assay: Insecticidal test on small brown planthopper (Laodelphax striatellus); settings: at 1000 ppm; acetone solution dispersed on rice seedlings; counted 6 days after treatment; 25° C.
[3] = test system: Common Cutworm (Spodoptera litura); assay: Insecticidal test on common cutworm (Spodoptera litura); settings: at 100 ppm; cabbage leaf immersed; second-instar larvae; counted 6 days after release; 25° C.
Protocol: Insecticidal Test on Common Cutworm (Spodoptera litura)
as §1, with “common cutworms” for “diamondback moths”

Row | SMILES | mortality [1] [%] | mortality [2] [%] | mortality [3] [%]
1 | O=C(Nc1cccc(C(=O)Nc2c(Br)cc(C(F)(C(F)(F)F)C(F)(F)F)c3ncccc23)c1)c1ccccc1 [1-303] | ≥ 70 | ≥ 70 | ≥ 70
2 | Cc1cc(OC(F)(F)C(F)C(F)(F)F)cc(C)c1NC(=O)c1cccc(NC(=O)c2cccnc2Cl)c1F (stereo not drawn) [2-194] | – | ≥ 70 | ≥ 70
3 | Cc1cc(Cn2nc(C(F)(F)F)cc2C(F)(F)F)cc(Br)c1NC(=O)c1cccc(NC(=O)c2ccccc2)c1 [1-592] | – | ≥ 70 | ≥ 70
4 | Cc1cc(OC(F)(F)C(F)C(F)(F)F)cc(Br)c1NC(=O)c1cccc(NC(=O)c2ccccc2)c1 (stereo not drawn) [2-183] | ≥ 70 | ≥ 70 | ≥ 70
5 | CN(C(=O)c1ccccc1)c1cccc(C(=O)Nc2c(Br)cc(OC(F)(F)C(F)C(F)(F)F)c3ncccc23)c1 (stereo not drawn) [2-200] | ≥ 70 | ≥ 70 | ≥ 70
6 | COCc1cc(C(F)(C(F)(F)F)C(F)(F)F)cc(C)c1NC(=O)c1cccc(NC(=O)c2ccccc2)c1 [1-572] | ≥ 70 | ≥ 70 | ≥ 70
7 | O=C(Nc1cccc(C(=O)Nc2cccc3cccnc23)c1)c1ccccc1 [1-499] | – | ≥ 70 | –
8 | CN(C(=O)c1cccnc1Cl)c1cccc(C(=O)Nc2c(Br)cc(OC(F)(F)C(F)C(F)(F)F)cc2Br)c1 (stereo not drawn) [2-163] | ≥ 70 | – | ≥ 70
9 | CN(C(=O)c1cccc(NC(=O)c2cccnc2Cl)c1)c1c(Br)cc(OC(F)(F)C(F)C(F)(F)F)cc1Br (stereo not drawn) [2-170] | ≥ 70 | – | ≥ 70
10 | CCS(=O)(=O)N(C)c1cccc(C(=O)Nc2c(C)cc(C(F)(C(F)(F)F)C(F)(F)F)cc2C)c1 [4-26] | ≥ 70 | – | ≥ 70
11 | O=C(Nc1cccc(C(=O)Nc2c(Br)cc(OC(F)(F)C(F)C(F)(F)F)cc2Br)c1)c1ccccc1 (stereo not drawn) [2-1] | ≥ 70 | – | ≥ 70
12 | CN(C(=O)c1ccccc1F)c1cccc(C(=O)N(C)c2c(Br)cc(OC(F)(F)C(F)C(F)(F)F)cc2Br)c1 (stereo not drawn) [2-175] | ≥ 70 | – | ≥ 70
13 | O=C(Nc1cccc(C(=O)Nc2c(Cl)cc(S(F)(F)(F)(F)F)cc2Cl)c1)c1ccccc1 [1-376] | ≥ 70 | – | ≥ 70
14 | Cn1ncc(C#N)c1NC(=O)c1cccc(NC(=O)c2ccccc2F)c1 [1-559] | – | ≥ 70 | –
15 | Cc1cc(C(F)(C(F)(F)F)C(F)(F)Br)cc(C)c1NC(=O)c1cccc(NC(=O)c2ccccc2)c1 (stereo not drawn) [1-306] | ≥ 70 | – | ≥ 70
16 | Cc1cc(C(F)(C(F)(F)F)C(F)(F)F)cc(C)c1NC(=O)c1cccc(NS(=O)(=O)c2ccc(Cl)cc2)c1 [Compound No. 4-6, N-[3-[(2,6-dimethyl-4-heptafluoroisopropylphenyl)aminocarbonyl]phenyl]-4-chlorobenzenesulfonamide] | ≥ 70 | – | ≥ 70
17 | Cc1cc(C(F)(C(F)(F)F)C(F)(F)F)cc2sc(NC(=O)c3cccc(NC(=O)c4ccccc4)c3)nc12 [1-517] | ≥ 70 | – | ≥ 70
18 | O=C(Nc1c(Br)cc(Br)cc1C(F)(F)F)c1cccc(NC(=O)c2ccc(F)cc2F)c1 [1-409] | ≥ 70 | – | ≥ 70
19 | Cc1cc(C(=O)C(F)(F)C(F)(F)F)cc(C)c1NC(=O)c1cccc(NC(=O)c2ccccc2)c1 [1-384] | ≥ 70 | – | ≥ 70
20 | Cc1cc(C(F)(C(F)(F)F)C(F)(F)F)cc(OS(=O)(=O)C(F)(F)F)c1NC(=O)c1cccc(N(C)C(=O)c2ccccc2)c1 [1-569] | ≥ 70 | – | ≥ 70
21 | O=C(Nc1c(Cl)cc(OC(C(F)(F)F)C(F)(F)F)cc1Cl)c1cccc(NC(=O)c2ccccc2F)c1 [1-308] | ≥ 70 | – | ≥ 70
22 | O=C(Nc1c(Br)cc(SC(F)(F)C(F)C(F)(F)F)cc1Br)c1cccc(NC(=O)c2ccccc2F)c1 (stereo not drawn) [2-211] | ≥ 70 | – | ≥ 70
23 | O=C(Nc1cccc(C(=O)Nc2c(Cl)cc(OC(C(F)(F)F)C(F)(F)F)cc2Cl)c1)c1ccccc1 [1-307] | ≥ 70 | – | ≥ 70
24 | Cn1ncc(C#N)c1NC(=O)c1cccc(NC(=O)c2cccnc2Cl)c1 [1-558] | – | ≥ 70 | –
25 | Cc1cc(C(F)(C(F)(F)F)C(F)(F)F)cc(C)c1NC(=O)c1cccc(Nc2nc(N)no2)c1 [5-24] | ≥ 70 | – | ≥ 70
26 | Cc1cc(C(F)(C(F)(F)F)C(F)(F)F)c2ccccc2c1NC(=O)c1cccc(NC(=O)c2ccccc2)c1 [1-373] | ≥ 70 | – | ≥ 70

Row | SMILES | mortality [1] [%] | mortality [2] [%] | mortality [3] [%]
27 | CN(C(=O)c1ccccc1)c1cccc(C(=O)N(C)c2c(Br)cc(OC(F)(F)C(F)C(F)(F)F)cc2Br)c1 (stereo not drawn) [2-174] | ≥ 70 | – | ≥ 70
28 | O=C(Nc1c(Cl)cc(SC(F)(F)C(F)C(F)(F)F)cc1Br)c1cccc(NC(=O)c2cccnc2Cl)c1 (stereo not drawn) [2-215] | ≥ 70 | – | ≥ 70
29 | CN(C(=O)c1ccccc1)c1cccc(C(=O)Nc2c(Br)cc(OC(F)(F)C(F)C(F)(F)F)cc2Br)c1 (stereo not drawn) [2-159] | ≥ 70 | – | ≥ 70
30 | CN(C(=O)c1ccccc1)c1cccc(C(=O)Nc2c(Br)cc(OC(F)(F)C(F)C(F)(F)F)cc2[N+](=O)[O-])c1 (stereo not drawn) [2-187] | ≥ 70 | – | ≥ 70
31 | Cc1cc(C(F)(C(F)(F)F)C(F)(F)F)cc(C)c1NC(=O)c1cccc(N(C)S(C)(=O)=O)c1 [4-24] | ≥ 70 | – | ≥ 70
32 | O=C(Nc1c(Br)cc(Sc2ccccc2)cc1Br)c1cccc(NC(=O)c2ccccc2F)c1 [1-539] | ≥ 70 | – | ≥ 70
33 | O=C(Nc1c(Br)cc(OC(F)(F)C(F)C(F)(F)F)c2ncccc12)c1cccc(NC(=O)c2cccnc2Cl)c1 (stereo not drawn) [2-199] | ≥ 70 | – | ≥ 70
34 | CN(C(=O)c1cccc(NC(=O)c2ccccc2)c1)c1c(Br)cc(OC(F)(F)C(F)C(F)(F)F)cc1Br (stereo not drawn) [2-166] | ≥ 70 | – | ≥ 70
35 | Cc1cc(C(F)(C(F)(F)F)C(F)(F)F)c2ccccc2c1NC(=O)c1cccc(NC(=O)c2ccccc2F)c1 [1-374] | ≥ 70 | – | ≥ 70
36 | Cc1cc(C(F)(C(F)(F)F)C(F)(F)F)cc(C)c1NC(=O)c1cccc(NS(=O)(=O)Cc2ccccc2)c1 [4-34] | ≥ 70 | – | ≥ 70
37 | O=C(Nc1cccc(C(=O)Nc2c(Br)cc(C(F)(C(F)(F)F)C(F)(F)F)c3ncccc23)c1)c1ccc([N+](=O)[O-])cc1 [1-305] | ≥ 70 | ≥ 70 | ≥ 70
38 | Cc1cc(OS(=O)(=O)C(F)(F)F)cc(Cl)c1NC(=O)c1cccc(NC(=O)c2ccccc2)c1 [1-371] | ≥ 70 | – | ≥ 70
39 | O=C(Nc1cccc(C(=O)Nc2c(Cl)cc(C(F)(F)F)cc2C(F)(F)F)c1)c1ccc([N+](=O)[O-])cc1 [1-368] | ≥ 70 | – | ≥ 70
40 | CN(C)c1cccc(C(=O)Nc2c(Br)cc(C(F)(C(F)(F)F)C(F)(F)F)cc2S(C)(=O)=O)c1 [5-29] | – | ≥ 70 | ≥ 70
41 | O=C(Nc1cccc(C(=O)Nc2c(Br)cc(C(F)(F)F)cc2C(F)(F)F)c1)c1ccccc1 [1-339] | ≥ 70 | – | ≥ 70
42 | O=C(Nc1c(Br)cc(SC(F)(F)C(F)C(F)(F)F)cc1Br)c1cccc(NC(=O)c2cccnc2Cl)c1 (stereo not drawn) [2-212] | ≥ 70 | – | ≥ 70
43 | Cc1cc(C(F)(C(F)(F)F)C(F)(F)F)cc(C)c1NC(=O)c1cccc(Nc2noc(N)n2)c1 [5-23] | ≥ 70 | – | ≥ 70
44 | CN(C(=O)c1ccccc1)c1cccc(C(=O)Nc2c(Cl)cc(SC(F)(F)C(F)C(F)(F)F)cc2Br)c1 (stereo not drawn) [2-216] | ≥ 70 | – | ≥ 70
45 | CN(C(=O)c1cccnc1Cl)c1cccc(C(=O)N(C)c2c(Br)cc(OC(F)(F)C(F)C(F)(F)F)cc2Br)c1 (stereo not drawn) [2-178] | ≥ 70 | – | ≥ 70
46 | O=C(Nc1c(Br)cc(Cl)cc1C(F)(F)F)c1cccc(NC(=O)c2ccccc2F)c1 [1-414] | ≥ 70 | – | ≥ 70
47 | CN(C(=O)c1cccc(NC(=O)c2ccccc2F)c1)c1c(Br)cc(OC(F)(F)C(F)C(F)(F)F)cc1Br (stereo not drawn) [2-167] | ≥ 70 | – | ≥ 70
48 | O=C(Nc1c(Cl)cc(SC(F)(F)C(F)C(F)(F)F)cc1Br)c1cccc(NC(=O)c2ccccc2F)c1 (stereo not drawn) [2-214] | ≥ 70 | – | ≥ 70
49 | CN(C(=O)c1cccnc1Cl)c1cccc(C(=O)Nc2c(Cl)cc(SC(F)(F)C(F)C(F)(F)F)cc2Br)c1 (stereo not drawn) [2-218] | ≥ 70 | – | ≥ 70
50 | O=C(Nc1c(Br)cc(OC(F)(F)C(F)C(F)(F)F)c2ncccc12)c1cccc(NC(=O)c2ccccc2F)c1 (stereo not drawn) [2-198] | ≥ 70 | – | ≥ 70
51 | O=C(Nc1cccc(C(=O)Nc2c(Br)cc(OC(F)(F)C(F)C(F)(F)F)cc2OC(F)(F)C(F)C(F)(F)F)c1)c1ccccc1 (stereo not drawn) [2-204] | ≥ 70 | – | ≥ 70
52 | O=C(Nc1cccc(C(=O)Nc2nc3cc(Cl)ccc3o2)c1)c1ccccc1 [1-496] | – | ≥ 70 | –

Source: US8067638B2, “Amide derivative and insecticide containing the same” (Mitsui Chemicals, Inc., priority 2005, dated 2011)
